Results from the supplement of paper PMC12823440, “Inhibitors supercharge kinase turnover through native proteolytic circuits” (Nature, 2025).
Where a name gives a salt, the structure may show the parent alone. Some of the results follow. Hit calls seldom repeat between salt and free forms of one compound.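 Kinases, fused to nanoluciferase, were expressed in K562 cells; luminescence was measured every 4 h from 2 to 18 h as percent of control (DMSO = 100%, positive control = 0%). A time point is decreased if signal falls significantly (2 sigma). Hits were called by the authors by a rule that is not shown; the count of time points alone does not decide it.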

Sequences of proteins named here, by UniProt entry; tags and fusion partners are left off. A change or cut given only in a name is not applied to a line headed by its entry.
UniProt Q15131: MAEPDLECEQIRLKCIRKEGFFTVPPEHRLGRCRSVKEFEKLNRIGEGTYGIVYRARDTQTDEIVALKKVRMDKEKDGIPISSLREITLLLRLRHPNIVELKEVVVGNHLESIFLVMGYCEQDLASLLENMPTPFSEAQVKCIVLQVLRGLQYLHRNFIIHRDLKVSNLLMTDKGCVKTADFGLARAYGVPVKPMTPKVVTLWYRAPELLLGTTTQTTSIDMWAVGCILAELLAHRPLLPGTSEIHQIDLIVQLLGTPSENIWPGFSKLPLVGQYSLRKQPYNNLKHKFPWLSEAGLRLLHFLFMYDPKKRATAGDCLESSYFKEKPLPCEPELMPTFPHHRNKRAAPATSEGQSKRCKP

Target: CDK10 (UniProt Q15131)
Assay: kinase-Nluc reporter destabilization hit call (1 = scored as downregulated) (binary); higher = compound decreases kinase abundance
Details: K562; 2-18 h

kinase-Nluc reporter destabilization hit call, inactive:
O=C(O)c1ccc(/C=C/S(=O)(=O)Cc2ccc(Cl)cc2)cc1 [Recilisib] (10 µM) 0, Nc1nc(NCCNc2ncc(-n3ccnc3)c(-c3ccc(Cl)cc3Cl)n2)ccc1[N+](=O)[O-] (2.5 µM) 0, Cc1cnc(NC(=O)c2cc(Oc3cnc(C(=O)N(C)C)nc3)c3cc(C)oc3c2)cn1 (10 µM) 0, CNC(=O)CNc1cnc2ccc(-c3ccc(OC)c(OC)c3)cc2n1 (10 µM) 0, N[C@@H]1CCCN(c2c(/C=C3\SC(=O)NC3=O)cccc2-c2ccccc2)C1 (10 µM) 0, CO[C@H]1C[C@@H]2CC[C@@H](C)[C@@](O)(O2)C(=O)C(=O)N2CCCC[C@H]2C(=O)O[C@H]([C@H](C)C[C@@H]2CC[C@@H](OC(=O)C(C)(CO)CO)[C@H](OC)C2)CC(=O)[C@H](C)/C=C(\C)[C@@H](O)[C@@H](OC)C(=O)[C@H](C)C[C@H](C)/C=C/C=C/C=C/1C [Temsirolimus] (2.5 µM) 0, COc1cc2nccc(Oc3ccc(NC(=O)c4cn(C(C)C)c(=O)n(-c5ccc(F)cc5)c4=O)cc3F)c2cc1OC (0.5 µM) 0, C=C1CCC[C@]2(C)C=C3OC(=O)C(C)=C3C[C@@H]12 [Atractylenolide I] (10 µM) 0, C=CC(=O)Nc1cc(Nc2nccc(-c3cn(C)c4ccccc34)n2)c(OC)cc1OCCN(C)C [Rezivertinib] (2.5 µM) 0, C=C1C(=O)[C@@]23[C@H](O)C[C@@H]4C(C)(C)C(=O)CC[C@@]4(C)[C@@H]2CC[C@@H]1[C@H]3O [Glaucocalyxin A] (2.5 µM) 0, NC1(C(=O)NCCCn2cc(-c3ccc(OC(F)(F)F)cc3)c3cc(CN4CCN(Cc5c(Cl)cccc5Cl)CC4)ccc32)CCNCC1 (2.5 µM) 0, CC(Sc1nc2c(cnn2-c2cccc(Cl)c2)c(=O)[nH]1)C(N)=O (stereo unspecified) (10 µM) 0, Fc1ccc2[nH]ccc2c1-c1nc(N2CCOCC2)c2sc(CN3CCN(CC4CC4)CC3)cc2n1 (10 µM) 0, Cn1cc(-c2cc(Oc3cc(F)c(NC(=O)C4(C(=O)Nc5ccccc5)CC4)cc3F)ccn2)cn1 (2.5 µM) 0, COc1ccc(S(=O)(=O)Nc2cc(-c3c(O)ccc4ccccc34)c(O)c3ccccc23)cc1 (10 µM) 0, Cn1c2cc([S+](C)[O-])sc2c2cnn(Cc3cccc(N)c3)c(=O)c21 (stereo unspecified) (2.5 µM) 0, O=C(NCCO)c1cc(C(=O)NCCO)cc(C(=O)NCCO)c1 (10 µM) 0, N#Cc1cnc2c(Cl)cc(NCc3cn(CCN4CCCCCC4)nn3)cc2c1Nc1ccc(F)c(Cl)c1 [Cot inhibitor-1] (10 µM) 0, Cn1c(=O)c2c(nc(S(C)(=O)=O)n2C)n(CC#Cc2cccc(O)c2)c1=O (2.5 µM) 0, Cc1ccc(C)c(OCCn2cc(C(=O)O)c3ccccc32)c1 (10 µM) 0, C=CC(=O)Nc1ccc(C(=O)Nc2[nH]nc3c2CN(C(=O)N[C@H](CN(C)C)c2ccccc2)C3(C)C)cc1 (10 µM) 0, Nc1ncnc2c1nc(Br)n2[C@@H]1O[C@@H]2COP(=O)(O)O[C@H]2[C@H]1O [8-Bromo-cAMP sodium salt] (10 µM) 0, O=c1[nH]ccc2nc(-c3ccc(CN4CCC(c5nc(-c6ccccn6)n[nH]5)CC4)cc3)c(-c3ccccc3)cc12 (10 µM) 0, COc1ccc(Nc2ncc(C(F)(F)F)c(NC3CC3)n2)cc1OC (10 µM) 0, O=C1NC(=O)/C(=C\c2c[nH]c(=O)c(-c3ccc(N4CCNCC4)nc3)c2)S1 [Protein kinase inhibitors 1 hydrochloride] (10 µM) 0, CCN(CC)CCCC(C)Nc1nc(C)cc(Nc2ccc3nc(C)cc(N)c3c2)n1 (stereo unspecified) (10 µM) 0
